From publication PMC7897482 come the findings set out here.

By UniProt entry, the sequences of proteins in these tests, tags left out.
UniProt Q9VH07: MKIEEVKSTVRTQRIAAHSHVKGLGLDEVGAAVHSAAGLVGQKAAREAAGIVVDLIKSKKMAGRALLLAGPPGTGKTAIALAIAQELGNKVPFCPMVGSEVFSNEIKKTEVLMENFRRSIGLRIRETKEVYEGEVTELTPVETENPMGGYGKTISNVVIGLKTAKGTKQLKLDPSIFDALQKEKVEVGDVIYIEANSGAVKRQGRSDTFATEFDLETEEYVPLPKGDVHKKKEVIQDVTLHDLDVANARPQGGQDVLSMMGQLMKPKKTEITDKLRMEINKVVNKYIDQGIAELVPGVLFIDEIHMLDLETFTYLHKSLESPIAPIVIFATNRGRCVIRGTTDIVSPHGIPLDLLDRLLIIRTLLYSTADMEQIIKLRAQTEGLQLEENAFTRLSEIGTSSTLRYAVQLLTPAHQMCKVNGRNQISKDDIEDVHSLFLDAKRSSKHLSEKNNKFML

These are yes or no findings as the source states them, for the method shown. Binding seen in cells or lysates may run through a third protein. Some results given as binding are weak or reduced against the parent protein; the word gives no strength. Where a sequence is shown, tags or fusion partners need not be part of it.

Test [1] deals with T1, SmD3::HA (transgenic UAS-SmD3::3xHA) (Drosophila melanogaster) (UniProt O44437).
T1 sequence: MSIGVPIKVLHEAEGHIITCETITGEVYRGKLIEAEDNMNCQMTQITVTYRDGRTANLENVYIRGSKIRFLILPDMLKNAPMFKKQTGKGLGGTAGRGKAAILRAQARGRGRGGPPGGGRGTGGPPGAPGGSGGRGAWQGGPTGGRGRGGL
In words: co-IP; SmD3::HA precipitated with anti-HA antibody-coupled magnetic beads from wing imaginal disc lysates; endogenous Prp8 and Ecd detected by western blot; compared: ecd RNAi, prp8 RNAi, Prp8 overexpression, RNase A treatment of the lysate; control: discs expressing RFP only. For orientation: A western blot detects proteins with antibodies after separation by electrophoresis.

Test [2] concerns the target T2, Myc::Ecd^Δ34 (Drosophila melanogaster) (UniProt Q9W032).
T2 sequence: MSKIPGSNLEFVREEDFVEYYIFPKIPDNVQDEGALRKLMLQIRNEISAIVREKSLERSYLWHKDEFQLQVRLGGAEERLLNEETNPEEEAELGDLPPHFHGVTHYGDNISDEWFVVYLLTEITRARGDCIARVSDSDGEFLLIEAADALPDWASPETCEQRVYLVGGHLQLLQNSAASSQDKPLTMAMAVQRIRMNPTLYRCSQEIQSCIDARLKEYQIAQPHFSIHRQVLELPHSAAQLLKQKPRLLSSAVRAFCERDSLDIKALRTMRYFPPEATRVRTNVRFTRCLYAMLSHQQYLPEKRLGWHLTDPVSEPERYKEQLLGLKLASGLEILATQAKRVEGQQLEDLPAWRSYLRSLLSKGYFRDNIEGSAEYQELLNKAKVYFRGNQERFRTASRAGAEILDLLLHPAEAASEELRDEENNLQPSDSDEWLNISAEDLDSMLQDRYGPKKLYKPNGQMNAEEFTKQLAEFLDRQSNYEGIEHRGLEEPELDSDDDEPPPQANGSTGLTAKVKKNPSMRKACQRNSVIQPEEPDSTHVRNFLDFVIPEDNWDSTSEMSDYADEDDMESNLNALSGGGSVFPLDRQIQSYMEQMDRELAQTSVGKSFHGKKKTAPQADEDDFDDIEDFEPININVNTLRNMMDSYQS
In words: co-IP; lysates of transfected Drosophila S2 cells; Myc-tagged Ecd proteins served as baits (anti-Myc magnetic beads), overnight at 4°C, five washes in lysis buffer with 150-250 mM NaCl; western blot.

Test [3] has as its target T3, Myc::Ecd^wt (Ecdysoneless, wild type) (Drosophila melanogaster) (UniProt Q9W032).
T3 sequence: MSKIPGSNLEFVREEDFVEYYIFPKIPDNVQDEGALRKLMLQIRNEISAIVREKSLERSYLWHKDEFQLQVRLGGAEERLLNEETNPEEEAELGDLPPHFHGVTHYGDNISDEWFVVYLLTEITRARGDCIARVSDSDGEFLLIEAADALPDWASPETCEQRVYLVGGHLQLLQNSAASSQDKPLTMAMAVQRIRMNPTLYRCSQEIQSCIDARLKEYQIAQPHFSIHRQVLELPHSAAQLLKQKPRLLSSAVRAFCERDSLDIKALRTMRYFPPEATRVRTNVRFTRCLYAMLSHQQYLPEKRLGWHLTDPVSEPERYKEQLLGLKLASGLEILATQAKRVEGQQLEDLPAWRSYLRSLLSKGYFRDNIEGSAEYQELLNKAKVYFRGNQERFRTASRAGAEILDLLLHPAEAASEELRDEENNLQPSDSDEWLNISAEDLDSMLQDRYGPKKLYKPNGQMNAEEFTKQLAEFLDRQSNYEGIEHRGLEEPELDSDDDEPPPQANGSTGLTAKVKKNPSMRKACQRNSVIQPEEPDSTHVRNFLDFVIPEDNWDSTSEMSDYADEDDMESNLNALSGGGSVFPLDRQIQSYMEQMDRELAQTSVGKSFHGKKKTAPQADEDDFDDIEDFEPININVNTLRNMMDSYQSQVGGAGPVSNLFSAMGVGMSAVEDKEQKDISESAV
The test is described as above.

With “endogenous Prp8 (wing imaginal discs) (from UniProt A1Z8U0 1-2396)”, the binding result in test [1] is “binds”. On to “tagged Pontin (RUVBL1) (from UniProt Q9VH07 1-456)”, for which the binding result in test [2] and in test [3] was “binds” each time.
